These are yes or no findings as the source states them, for the method shown. Some results given as binding are weak or reduced against the parent protein; the word gives no strength.
Assays:
[1] = target: CEACAM1 protein (CD66a), full length on cells (human) (UniProt P13688); assay: flow cytometry on stably transfected 721.221 cells
[2] = target: CEACAM5 protein on 721.221 cells (human) (UniProt P06731); assay: flow cytometry on stably transfected 721.221 cells
[3] = target: CEACAM1 protein (CD66a), full length on cells (human) (UniProt P13688); assay: flow cytometry, 50 ug/ml fusion protein, on 0.221/CEACAM1 cells
[4] = target: CEACAM1 protein (CD66a), full length on cells (human) (UniProt P13688); assay: flow cytometry on 0.221/CEACAM1 cells (FIG. 30a legend)
[5] = target: CCM6-SL43,44RQ (CEACAM6 with R and Q at positions 43 and 44 instead of S and L) (human) (UniProt P40199); assay: flow cytometry on stably transfected 721.221 cells

By UniProt entry, the sequences of proteins in these tests, tags left out. Where a name states a change or a piece, a line headed by the entry shows the natural chain unless it says otherwise.
UniProt P06731: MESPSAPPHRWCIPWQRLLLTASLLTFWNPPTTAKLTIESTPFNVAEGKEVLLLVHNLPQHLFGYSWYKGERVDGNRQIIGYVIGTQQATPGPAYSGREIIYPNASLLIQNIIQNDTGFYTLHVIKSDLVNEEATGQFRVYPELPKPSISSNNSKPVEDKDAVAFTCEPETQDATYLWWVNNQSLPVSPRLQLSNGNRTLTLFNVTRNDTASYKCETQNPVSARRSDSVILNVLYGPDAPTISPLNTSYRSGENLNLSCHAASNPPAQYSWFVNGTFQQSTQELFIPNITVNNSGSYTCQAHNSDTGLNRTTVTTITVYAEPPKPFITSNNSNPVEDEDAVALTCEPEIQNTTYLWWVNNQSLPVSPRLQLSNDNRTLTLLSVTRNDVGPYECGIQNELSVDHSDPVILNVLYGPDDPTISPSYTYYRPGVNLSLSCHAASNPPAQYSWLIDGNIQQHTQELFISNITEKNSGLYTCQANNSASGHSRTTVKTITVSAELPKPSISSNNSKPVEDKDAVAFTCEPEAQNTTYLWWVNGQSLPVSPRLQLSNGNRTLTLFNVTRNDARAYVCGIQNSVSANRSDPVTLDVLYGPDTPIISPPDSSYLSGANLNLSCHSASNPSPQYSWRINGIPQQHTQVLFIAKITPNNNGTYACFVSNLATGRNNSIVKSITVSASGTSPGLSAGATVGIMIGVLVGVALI
UniProt P40199: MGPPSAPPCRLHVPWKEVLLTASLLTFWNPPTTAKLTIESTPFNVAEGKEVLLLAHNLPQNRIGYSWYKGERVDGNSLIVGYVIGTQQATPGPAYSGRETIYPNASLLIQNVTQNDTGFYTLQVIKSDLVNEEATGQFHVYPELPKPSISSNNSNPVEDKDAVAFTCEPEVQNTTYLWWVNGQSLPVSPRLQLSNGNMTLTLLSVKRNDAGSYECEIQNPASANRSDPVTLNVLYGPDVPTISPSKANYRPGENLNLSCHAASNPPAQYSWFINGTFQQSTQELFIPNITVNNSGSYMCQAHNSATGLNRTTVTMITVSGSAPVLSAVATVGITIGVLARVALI

In the case of “CEACAM1-Ig fusion protein (extracellular portion of CEACAM1 fused to the Fc portion of human IgG1) (from UniProt P13688 35-142) (Fc fusion)”, the binding [1] is reported as “binds”, the binding [2] is reported as “binds” and the binding [3] is reported as “binds”. The binding [4] was “binds”.

B1: CEACAM1-Ig fusion protein (extracellular portion of CEACAM1 fused to the Fc portion of human IgG1) (Fc fusion)
chain: QLTTESMPFNVAEGKEVLLLVHNLPQQLFGYSWYKGERVDGNRQIVGYAIGTQQATPGPANSGRETIYPNASLLIQNVTQNDTGFYTLQVIKSDLVNEEATGQFHVYP
notes: also called CCM1-Ig; soluble CEACAM1-Ig; not shown: Fc portion of human IgG1
B1 was tested, and the binding [5] was “binds”.

— patent publication US20190374662A1 (published 2019)
